Literature values in US20260176659A1, “IMPROVED METHOD FOR THE PRODUCTION OF NATURAL VANILLIN” (BASE SE, priority 2022, published 2026).
At least one read-out could not be matched to a standard name with certainty.

Details: oxidation of eugenol 1a to coniferyl alcohol 2a; pH 7.5; reported; cited from earlier work

B1: EUGO: eugenol oxidase from Rhodococcus jostii (Uniprot: Q0SBK1), SEQ ID NO: 2, used as cell free extract (protein)
chain: MTRTLPPGVSDERFDAALQRFRDVVGDKWVLSTADELEAFRDPYPVGAAEANLPSAVVSPESTEQVQDIVRIANEYGIPLSPVSTGKNNGYGGAAPRLSGSVIVKTGERMNRILEVNEKYGYALLEPGVTYFDLYEYLQSHDSGLMLDCPDLGWGSVVGNTLDRGVGYTPYGDHFMWQTGLEVVLPQGEVMRTGMGALPGSDAWQLFPYGFGPFPDGMFTQSNLGIVTKMGIALMQRPPASQSFLITFDKEEDLEQIVDIMLPLRINMAPLQNVPVLRNIFMDAAAVSKRTEWFDGDGPMPAEAIERMKKDLDLGFWNFYGTLYGPPPLIEMYYGMIKEAFGKIPGARFFTHEERDDRGGHVLQDRHKINNGIPSLDELQLLDWVPNGGHIGFSPVSAPDGREAMKQFEMVRNRANEYNKDYAAQFIIGLREMHHVCLFIYDTAIPEAREEILQMTKVLVREAAEAGYGEYRTHNALMDDVMATFNWGDGALLKFHEKIKDALDPNGIIAPGKSGIWSQRFRGQNL
modifications: cell free extract; Rhodococcus Jostii
Q: For B1, which kcat/Km is on record?
A: 3.1e+06 M⁻¹ s⁻¹
